From publication PMC9579816
Results are given in words; binding and its absence hold for the method and conditions named. Some entries that bind do so weakly or less than the wild type.

Target: T1, Tom40 (S. cerevisiae (endogenous in yeast mitochondria)) (UniProt P23644)
T1 sequence: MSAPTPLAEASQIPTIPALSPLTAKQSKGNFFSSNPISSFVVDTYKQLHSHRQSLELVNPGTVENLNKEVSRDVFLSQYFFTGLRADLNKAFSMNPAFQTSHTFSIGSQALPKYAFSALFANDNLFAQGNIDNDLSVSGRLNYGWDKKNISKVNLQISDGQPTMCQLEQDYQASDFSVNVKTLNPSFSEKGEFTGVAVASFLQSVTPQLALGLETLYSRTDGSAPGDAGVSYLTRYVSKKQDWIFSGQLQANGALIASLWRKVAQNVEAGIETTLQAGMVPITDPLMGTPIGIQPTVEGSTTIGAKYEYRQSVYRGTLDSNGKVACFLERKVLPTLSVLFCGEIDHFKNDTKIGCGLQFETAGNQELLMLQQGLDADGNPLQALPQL
Experiment: native gel or EMSA; blue native gel electrophoresis of mitochondria isolated from wild-type and Δubc8 cells shifted from glycerol to glucose medium for 4 h; Western blotting

binding: binds
B1: Tom22 (protein, UniProt P49334 1-152)
chain: MVELTEIKDDVVQLDEPQFSRNQAIVEEKASATNNDVVDDEDDSDSDFEDEFDENETLLDRIVALKDIVPPGKRQTISNFFGFTSSFVRNAFTKSGNLAWTLTTTALLLGVPLSLSILAEQQLIEMEKTFDLQSDANNILAQGEKDAAATAN
